Measured data: PubChem BioAssay AID1671195 (Yale University, 2021)

Test: 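Regulators of LDL receptor activity judged by labelled LDL uptake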 (primary screen)
System: human Huh7 hepatoma cells
Knock-down reagent: siRNA pool against human genes, 18 nM
Duration: about 2 to 2.5 days of knockdown, then 8 h LDL uptake
Conditions: DiI-labelled LDL at 30 µg/ml for 8 h, in lipoprotein-deficient serum medium
Detection: 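Per-cell DiI-LDL intensity by automated imaging; well means scaled to the plate median and given as a robust z-score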
Reading the numbers: robust z-score: higher = more LDL uptake after knockdown
Call rule: 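a gene counts as active if at least two replicate z-scores exceed ±2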
The whole screen tested about 22,000 reagents; shown is a part drawn at random. About 1,510 of them (6.9%) were called active. 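Active includes knockdowns raising or lowering LDL uptake; positive z-scores mean more uptake, negative mean less.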 Unmarked entries are inactive.

| gene | robust z-score, replicate 1 | robust z-score, replicate 2 | robust z-score, replicate 3 |
| --- | --- | --- | --- |
| NLRP2 | -0.0532 | 1.33 | -0.281 |
| SKP1 | 0.211 | 0.432 | -0.763 |
| MFAP3L | -0.946 | -0.927 | -1.01 |
| BDP1 | 0.247 | -2.27 | -0.312 |
| LOC442145 (retired record) | 0.0225 | -0.192 | 0.0768 |
| JAKMIP1 | -1.02 | -0.691 | -1.25 |
| CHKB | 0.411 | 0.206 | -0.579 |
| LOC441722 | -2.5 (active) | -2.91 | -2.55 |
| ELL2 | -0.711 | -0.814 | -0.337 |
| MAML3 | -0.894 | 0.0552 | -1 |
| OR12D3 | -0.814 | -1.15 | -1.02 |
| HSPG2 | 0.723 | 0.672 | 0.83 |
| TBC1D28 | -0.22 | 0.0635 | 0.403 |
| KRTAP1-1 | -1.23 | -1.61 | -1.57 |
| TG | 0.642 | 0.325 | 1.1 |
| DLG1 | 0.383 | 0.609 | 0.119 |
| MMP9 | -1.01 | 0.00438 | -0.603 |
| GABARAPL1 | 2.36 | 1.64 | 1.32 |
| GNL3L | 0.892 | 0.846 | -1.72 |
| RCCD1 | -0.111 | -0.186 | -0.0847 |
| FCER2 | -0.59 | -1.09 | -0.00198 |
| DIO3OS | -0.571 | -1.01 | -0.833 |
| SRPX2 | 0.302 | -0.256 | 0.538 |
| USP9Y | -1.95 (active) | -2.33 | -1.72 |
| CD4 | -1.14 | 1.15 | -0.675 |
| GAPDHP23 | -2.11 (active) | -2.18 | -2.02 |
| LOC440997 (retired record) | -0.332 | -0.518 | -0.00415 |
| LOC441305 (retired record) | -0.462 | -0.705 | -0.612 |

A stretch taken from the entries so far, as a working copy:
| gene | robust z-score, replicate 1 | robust z-score, replicate 2 | robust z-score, replicate 3 |
| --- | --- | --- | --- |
| DLG1 | 0.383 | 0.609 | 0.119 |
| MMP9 | -1.01 | 0.00438 | -0.603 |
| GABARAPL1 | 2.36 | 1.64 | 1.32 |
| GNL3L | 0.892 | 0.846 | -1.72 |
| RCCD1 | -0.111 | -0.186 | -0.0847 |
